Measurements reported in paper PMC8097366, “The Dual Function of KDM5C in Both Gene Transcriptional Activation and Repression Promotes Breast Cancer Cell Growth and Tumorigenesis” (Advanced Science, 2021).
No constants are given. Whether binding was seen depends on the method and setting. Binding seen in cells or lysates may run through a third protein. Some entries that bind do so weakly or less than the wild type. For part of these data: Sequences can lack the tags named with a protein. Blank lines part the entries; values can stand above or below the substance they belong to.

Sequences of proteins named here, by UniProt entry; tags and fusion partners are left off. A change or cut given only in a name is not applied to a line headed by its entry.
UniProt P50750: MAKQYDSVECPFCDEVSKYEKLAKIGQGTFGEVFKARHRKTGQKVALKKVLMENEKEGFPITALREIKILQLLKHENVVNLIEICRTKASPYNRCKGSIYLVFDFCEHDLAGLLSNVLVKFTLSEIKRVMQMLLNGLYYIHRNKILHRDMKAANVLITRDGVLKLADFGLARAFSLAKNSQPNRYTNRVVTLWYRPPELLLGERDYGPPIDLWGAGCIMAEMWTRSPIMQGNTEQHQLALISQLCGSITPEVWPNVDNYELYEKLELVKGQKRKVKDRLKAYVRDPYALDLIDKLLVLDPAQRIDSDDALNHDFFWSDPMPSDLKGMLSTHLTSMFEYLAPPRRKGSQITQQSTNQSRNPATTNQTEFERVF
UniProt P03372: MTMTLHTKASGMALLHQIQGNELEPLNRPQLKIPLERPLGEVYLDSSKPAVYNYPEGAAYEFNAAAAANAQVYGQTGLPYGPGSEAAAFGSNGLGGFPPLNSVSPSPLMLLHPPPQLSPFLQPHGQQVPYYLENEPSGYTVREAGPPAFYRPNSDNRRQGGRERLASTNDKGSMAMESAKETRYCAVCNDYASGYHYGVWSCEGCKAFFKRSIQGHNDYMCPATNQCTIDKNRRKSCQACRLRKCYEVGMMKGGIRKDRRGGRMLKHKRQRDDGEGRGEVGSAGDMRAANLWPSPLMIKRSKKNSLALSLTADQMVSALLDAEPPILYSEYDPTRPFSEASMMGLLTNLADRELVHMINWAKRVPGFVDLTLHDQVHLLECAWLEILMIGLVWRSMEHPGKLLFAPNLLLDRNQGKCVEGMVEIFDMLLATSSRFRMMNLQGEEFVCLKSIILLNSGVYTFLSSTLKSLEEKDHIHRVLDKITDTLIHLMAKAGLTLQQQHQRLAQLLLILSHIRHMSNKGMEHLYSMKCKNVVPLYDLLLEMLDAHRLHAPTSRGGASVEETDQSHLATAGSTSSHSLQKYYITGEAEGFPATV
UniProt Q09472: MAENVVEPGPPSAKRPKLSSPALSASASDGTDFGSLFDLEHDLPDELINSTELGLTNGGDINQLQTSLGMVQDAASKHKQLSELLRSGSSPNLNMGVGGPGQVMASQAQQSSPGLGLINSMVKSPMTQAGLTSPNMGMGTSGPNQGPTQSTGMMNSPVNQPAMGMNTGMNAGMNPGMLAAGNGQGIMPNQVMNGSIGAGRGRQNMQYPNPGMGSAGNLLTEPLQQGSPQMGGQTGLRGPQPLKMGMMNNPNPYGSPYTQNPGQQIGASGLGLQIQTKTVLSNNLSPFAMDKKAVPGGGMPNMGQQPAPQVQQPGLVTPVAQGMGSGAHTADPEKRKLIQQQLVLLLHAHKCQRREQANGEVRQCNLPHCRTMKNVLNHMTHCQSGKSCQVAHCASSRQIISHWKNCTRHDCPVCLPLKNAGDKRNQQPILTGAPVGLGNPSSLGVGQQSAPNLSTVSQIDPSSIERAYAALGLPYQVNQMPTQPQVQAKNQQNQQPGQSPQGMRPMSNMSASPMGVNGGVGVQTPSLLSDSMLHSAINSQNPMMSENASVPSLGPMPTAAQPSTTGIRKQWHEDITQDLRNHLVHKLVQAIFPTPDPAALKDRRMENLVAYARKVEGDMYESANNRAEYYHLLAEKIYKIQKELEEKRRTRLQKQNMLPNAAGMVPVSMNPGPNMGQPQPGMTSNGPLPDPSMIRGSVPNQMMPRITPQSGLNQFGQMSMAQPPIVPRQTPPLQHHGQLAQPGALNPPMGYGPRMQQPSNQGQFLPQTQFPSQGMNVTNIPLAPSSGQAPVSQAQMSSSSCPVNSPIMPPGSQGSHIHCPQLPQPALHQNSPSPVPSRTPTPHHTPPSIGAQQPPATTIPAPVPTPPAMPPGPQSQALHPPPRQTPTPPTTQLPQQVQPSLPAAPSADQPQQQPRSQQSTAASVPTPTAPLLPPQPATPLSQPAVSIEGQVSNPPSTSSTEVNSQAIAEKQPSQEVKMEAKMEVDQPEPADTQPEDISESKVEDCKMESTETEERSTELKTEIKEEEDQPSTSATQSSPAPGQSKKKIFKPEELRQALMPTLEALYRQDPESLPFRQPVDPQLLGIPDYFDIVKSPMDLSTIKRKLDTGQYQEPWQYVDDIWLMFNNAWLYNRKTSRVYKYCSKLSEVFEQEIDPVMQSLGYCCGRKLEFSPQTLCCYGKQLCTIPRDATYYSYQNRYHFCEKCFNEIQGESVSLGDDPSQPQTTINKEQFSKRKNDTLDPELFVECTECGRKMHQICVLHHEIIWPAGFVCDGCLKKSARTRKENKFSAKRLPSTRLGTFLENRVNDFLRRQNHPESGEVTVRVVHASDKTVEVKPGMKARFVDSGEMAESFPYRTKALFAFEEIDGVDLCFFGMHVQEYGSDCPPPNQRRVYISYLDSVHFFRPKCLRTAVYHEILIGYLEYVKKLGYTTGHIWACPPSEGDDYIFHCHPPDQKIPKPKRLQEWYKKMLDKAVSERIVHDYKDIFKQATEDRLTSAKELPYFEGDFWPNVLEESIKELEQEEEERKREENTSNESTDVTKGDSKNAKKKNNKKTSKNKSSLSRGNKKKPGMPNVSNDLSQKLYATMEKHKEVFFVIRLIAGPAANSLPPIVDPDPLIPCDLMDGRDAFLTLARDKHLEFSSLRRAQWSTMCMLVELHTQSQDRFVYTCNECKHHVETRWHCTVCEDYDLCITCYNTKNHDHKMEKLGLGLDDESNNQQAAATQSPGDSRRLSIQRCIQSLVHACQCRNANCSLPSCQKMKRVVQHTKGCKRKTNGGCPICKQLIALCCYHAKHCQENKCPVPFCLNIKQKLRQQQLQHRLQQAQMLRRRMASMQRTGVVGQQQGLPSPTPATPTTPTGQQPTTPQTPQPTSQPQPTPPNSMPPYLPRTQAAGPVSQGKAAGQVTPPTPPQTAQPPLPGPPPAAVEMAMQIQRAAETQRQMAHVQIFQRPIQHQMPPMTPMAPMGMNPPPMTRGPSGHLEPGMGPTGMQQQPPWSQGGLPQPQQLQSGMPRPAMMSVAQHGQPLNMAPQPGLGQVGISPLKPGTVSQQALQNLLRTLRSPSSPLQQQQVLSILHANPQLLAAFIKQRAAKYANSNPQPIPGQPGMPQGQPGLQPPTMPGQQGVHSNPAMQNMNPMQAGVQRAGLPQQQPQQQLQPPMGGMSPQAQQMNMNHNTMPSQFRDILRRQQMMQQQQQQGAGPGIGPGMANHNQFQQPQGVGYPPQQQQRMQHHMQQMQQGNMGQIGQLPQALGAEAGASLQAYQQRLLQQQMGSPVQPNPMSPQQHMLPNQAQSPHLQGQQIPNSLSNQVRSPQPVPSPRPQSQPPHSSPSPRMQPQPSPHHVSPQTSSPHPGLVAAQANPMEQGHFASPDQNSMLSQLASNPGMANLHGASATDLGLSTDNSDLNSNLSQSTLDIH

Assays:
[1] = target: KDM5C, endogenous in MCF7 (human (endogenous in MCF7)) (UniProt P41229); experiment: co-IP; endogenous proteins, nuclear extracts from MCF7 cells; IP with anti-KDM5C antibody (control IgG), protein A/G magnetic beads, 250 mM NaCl, 0.5% NP-40; immunoblotting
[2] = target: T1, HA-tagged KDM5C T1, aa (1–650) (UniProt P41229); experiment: co-IP; transfected HEK293T cells; IP with anti-Flag M2 affinity gel or anti-HA agarose, 4 °C overnight, 150 mM KCl, 0.1% NP-40; immunoblotting
T1 sequence: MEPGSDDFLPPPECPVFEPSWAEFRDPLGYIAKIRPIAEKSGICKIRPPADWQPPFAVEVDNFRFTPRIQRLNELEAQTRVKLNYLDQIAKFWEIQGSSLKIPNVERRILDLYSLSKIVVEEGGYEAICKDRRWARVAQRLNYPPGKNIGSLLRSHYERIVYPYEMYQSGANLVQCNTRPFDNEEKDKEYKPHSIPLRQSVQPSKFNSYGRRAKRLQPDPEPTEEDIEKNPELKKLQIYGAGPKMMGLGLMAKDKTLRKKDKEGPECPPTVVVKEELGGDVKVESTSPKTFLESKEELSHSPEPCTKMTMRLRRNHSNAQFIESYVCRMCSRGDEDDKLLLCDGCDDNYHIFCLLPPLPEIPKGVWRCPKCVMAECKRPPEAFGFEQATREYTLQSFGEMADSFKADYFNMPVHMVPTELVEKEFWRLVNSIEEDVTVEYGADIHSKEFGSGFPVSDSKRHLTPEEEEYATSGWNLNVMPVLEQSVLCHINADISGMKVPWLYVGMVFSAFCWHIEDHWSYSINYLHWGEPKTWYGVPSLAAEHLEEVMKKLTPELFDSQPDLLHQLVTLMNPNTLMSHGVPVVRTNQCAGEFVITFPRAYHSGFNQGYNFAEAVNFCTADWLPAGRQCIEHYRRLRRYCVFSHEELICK

[3] = target: T2, HA-tagged KDM5C T5, aa (460–640) (UniProt P41229); experiment: as above
T2 sequence: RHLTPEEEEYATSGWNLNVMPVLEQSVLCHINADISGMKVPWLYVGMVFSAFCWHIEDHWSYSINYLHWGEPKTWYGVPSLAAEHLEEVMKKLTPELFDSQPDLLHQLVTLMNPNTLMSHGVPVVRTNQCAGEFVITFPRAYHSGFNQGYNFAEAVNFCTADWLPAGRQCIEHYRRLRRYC

[4] = target: KDM5C (immunoprecipitation of Figure S5F) (UniProt P41229); experiment: co-IP; immunoprecipitation (Figure S5F); cells, antibodies and bait not given
[5] = target: T3, ZMYND8 (immunoprecipitation of Figure S5F) (UniProt Q9ULU4); experiment: as above
T3 sequence: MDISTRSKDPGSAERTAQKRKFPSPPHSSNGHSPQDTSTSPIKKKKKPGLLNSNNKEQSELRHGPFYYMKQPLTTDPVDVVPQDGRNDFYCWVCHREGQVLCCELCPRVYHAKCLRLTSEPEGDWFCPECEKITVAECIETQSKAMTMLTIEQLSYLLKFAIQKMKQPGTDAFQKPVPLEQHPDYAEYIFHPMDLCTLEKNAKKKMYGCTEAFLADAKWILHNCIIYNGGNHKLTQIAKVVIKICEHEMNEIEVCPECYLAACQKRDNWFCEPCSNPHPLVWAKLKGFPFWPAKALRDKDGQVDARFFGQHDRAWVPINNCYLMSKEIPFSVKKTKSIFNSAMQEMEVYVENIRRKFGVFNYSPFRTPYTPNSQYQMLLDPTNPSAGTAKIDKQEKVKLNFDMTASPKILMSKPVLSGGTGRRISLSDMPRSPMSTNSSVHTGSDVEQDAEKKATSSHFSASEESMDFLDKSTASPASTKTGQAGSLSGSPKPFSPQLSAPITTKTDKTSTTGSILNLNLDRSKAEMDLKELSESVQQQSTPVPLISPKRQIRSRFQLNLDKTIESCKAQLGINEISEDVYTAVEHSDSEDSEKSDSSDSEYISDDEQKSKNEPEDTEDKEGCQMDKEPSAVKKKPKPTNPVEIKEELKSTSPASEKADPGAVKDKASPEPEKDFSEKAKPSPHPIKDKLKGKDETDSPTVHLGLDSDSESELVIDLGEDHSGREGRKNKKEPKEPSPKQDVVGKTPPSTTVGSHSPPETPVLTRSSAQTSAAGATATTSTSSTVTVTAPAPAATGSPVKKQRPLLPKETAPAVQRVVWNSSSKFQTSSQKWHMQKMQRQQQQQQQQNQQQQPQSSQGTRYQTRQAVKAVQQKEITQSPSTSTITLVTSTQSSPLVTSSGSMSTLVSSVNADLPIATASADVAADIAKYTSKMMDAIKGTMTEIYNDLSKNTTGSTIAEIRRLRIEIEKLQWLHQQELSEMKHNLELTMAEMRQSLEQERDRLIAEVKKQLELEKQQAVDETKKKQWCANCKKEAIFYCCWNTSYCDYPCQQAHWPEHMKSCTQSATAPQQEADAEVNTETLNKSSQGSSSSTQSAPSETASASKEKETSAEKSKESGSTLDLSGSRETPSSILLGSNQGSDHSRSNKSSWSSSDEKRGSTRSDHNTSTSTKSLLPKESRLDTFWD

[6] = target: KDM5C, endogenous in MCF7 (human (endogenous in MCF7)) (UniProt P41229); experiment: co-IP; endogenous proteins, MCF7 cells treated with estrogen (E2, 10^-7 M, 1 h); IP with anti-KDM5C antibody; immunoblotting

- binding [1]: binds
Substance: CDK9, endogenous in MCF7 (from UniProt P50750 1-372)

- binding [2]: binds
- binding [3]: binds
Substance: Flag-tagged ERα, full length (from UniProt P03372 1-595) (receptor)

- binding [4]: binds
- binding [5]: binds
Substance: P300 (immunoprecipitation of Figure S5F) (from UniProt Q09472 1-2414) (enzyme)

- binding [6]: binds
Substance: estrogen receptor alpha, endogenous in MCF7 (from UniProt P03372 1-595)
